PubChem BioAssay AID1259308 – NCATS – 2017

Screen: 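Genes whose loss raises luciferase production in HEK293 cells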 (primary screen)
System: human HEK293 embryonic kidney cells stably expressing firefly luciferase (HEK-CMV-Luc2-Hygro)
Reagents: single siRNA against human genes, 0.8 pmol siRNA per well
Duration: 72 h
Read-out: 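Luciferase light (ONE-Glo) measured on one replicate plate set and viability (CellTiter-Glo) on the other, scaled to a negative control siRNA, with robust z-scores and luciferase per cell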
Reading the numbers: total luciferase, z-score and total luciferase, % of control: higher = more reporter protein produced; luciferase per cell, z-score: higher = more reporter output per viable cell; viable cells, % of control: higher = more viable cells
Rule for the call: 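Active when the median/MAD z-score for overall luciferase is greater than 3; a gene was taken forward for validation with new siRNAs if at least two of its three siRNAs passed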
Calls: active = raised luciferase; inactive = no rise
In all, the deposit lists about 59,000 reagents; this is a part drawn at random. Of all reagents, about 1,510 (2.6%) were called active. 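Calls use total luciferase alone and ignore viability, so some active siRNAs may act by altering cell number.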 Reagents against one gene are numbered here.

Target gene	reagent	total luciferase, z-score	total luciferase, % of control	luciferase per cell, z-score	viable cells, % of control	call
LYRM4	1	0.754	96.9	0.409	97.2	inactive
LYRM4	2	-1.09	60.2	-0.918	85.7	inactive
LYRM4	3	-0.478	72.4	1.32	57.1	inactive
RNF144A	1	0.231	86.5	0.0622	95.1	inactive
RNF144A	2	-0.716	67.6	-0.793	93.1	inactive
RNF144A	3	1.92	120	2.66	66.6	inactive
KLF16	1	0.137	84.6	-0.272	102	inactive
KLF16	2	1.26	107	0.674	100	inactive
KLF16	3	1.9	120	1.84	82.3	inactive
EGFL8	1	-0.893	64.1	-0.682	85.7	inactive
EGFL8	2	0.00426	82	-0.159	95.5	inactive
EGFL8	3	-1.68	48.4	-1.76	86.1	inactive

Laid out differently: 4 of the entries above.
LYRM4 #1
- total luciferase, z-score: 0.754
- total luciferase, % of control: 96.9
- luciferase per cell, z-score: 0.409
- viable cells, % of control: 97.2
- call: inactive

LYRM4 #2
- total luciferase, z-score: -1.09
- total luciferase, % of control: 60.2
- luciferase per cell, z-score: -0.918
- viable cells, % of control: 85.7
- call: inactive

LYRM4 #3
- total luciferase, z-score: -0.478
- total luciferase, % of control: 72.4
- luciferase per cell, z-score: 1.32
- viable cells, % of control: 57.1
- call: inactive

RNF144A #1
- total luciferase, z-score: 0.231
- total luciferase, % of control: 86.5
- luciferase per cell, z-score: 0.0622
- viable cells, % of control: 95.1
- call: inactive

The listing continues.
Target gene	reagent	total luciferase, z-score	total luciferase, % of control	luciferase per cell, z-score	viable cells, % of control	call
WDR45B	1	-1.12	59.5	-1.38	95.7	inactive
WDR45B	2	-0.463	72.7	-0.583	94.7	inactive
WDR45B	3	-0.273	76.5	0.377	77.4	inactive
PADI2	1	0.266	87.2	0.356	88.7	inactive
PADI2	2	-0.488	72.2	-0.568	93.7	inactive
PADI2	3	-0.63	69.4	-0.615	91.1	inactive
COP1	1	1.04	103	0.814	92.5	inactive
COP1	2	1.01	102	1.22	82.6	inactive
COP1	3	-0.557	70.8	-0.0297	79.8	inactive
IL10RA	1	-0.0148	81.6	0.191	86.7	inactive
IL10RA	2	-0.649	69	-0.663	91.8	inactive
IL10RA	3	1.18	105	1.38	81.9	inactive
